Laboratory results published in PubChem BioAssay AID2685 (National Center for Advancing Translational Sciences (NCATS), 2010).
The whole screen tested about 320,000 compounds, of which about 2,100 (0.66%) were called active. This list was built around the results that the source calls inconclusive (neither active nor inactive); the mix of calls is not that of the screen. Calls come from the whole dose curve; as a rule, active = well fitted inhibition curve with a large enough effect in the signal ratio, with a control signal flat (not every such curve was filed as active); inconclusive = small, poorly fitted or top-dose-only effect, or effect the other way, or a change in a side signal; inactive = flat fitted curve, though single readings scatter; the % refers to the signal ratio. Potencies of inconclusive entries are doubtful fits and often do not repeat.

experiment: qHTS Assay for Lipid Storage Modulators in Drosophila S3 Cells; details: BODIPY lipid droplet fluorescence, 18-24 h, cells fed with added oleic acid; lipid storage change, negative = inhibition: at 46.1 µM (top of the series) unless noted
How it was run: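 Drosophila S3 cells loaded with oleic acid (400 uM, as added) and compounds at several concentrations; lipid droplets imaged by 488-nm laser-scanning cytometry, 500–530 nm intensity and object ratio to cell channel. Percent activity normalized to 20 uM Triacsin C.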
% is set by controls: 0 for no effect and ±100 for the full control effect; potency is the fitted concentration of half-maximal effect.

| SMILES | outcome | lipid storage change, negative = inhibition | Potency |
| --- | --- | --- | --- |
| O=C(CN1CCc2ccccc21)NC(=O)NCc1ccccc1 | inactive [at 46.1 µM] |  |  |
| N#Cc1ccccc1OCC(=O)NC(=O)NC1CCS(=O)(=O)C1 (configuration not stated) |  | inconclusive: 38.1% |  |
| COc1cccc(-n2c(SCC(=O)NCCC3=CCCCC3)nc3n[nH]c(C)c3c2=N)c1 |  | inconclusive: -48.7% |  |
| COc1ccc(C(Nc2ccccn2)c2c(NC(=O)c3ccco3)sc(C)c2C)cc1 (configuration not stated) |  | inconclusive: 26.3% |  |
| COc1cccc(CNn2cnnc2)c1OCc1ccc(F)cc1 |  |  | inconclusive: 3.66 µM [activator, partial curve] |
| O=C(CN1CCCSc2ccccc21)N1CCN(S(=O)(=O)c2cccc(F)c2)CC1 |  | inconclusive: 7.74% |  |
| Cc1ccc(S(=O)(=O)N2CCN(C(=O)COC(=O)c3ccc(C(C)(C)C)cc3)CC2)c(C)c1 |  | inconclusive: 4.86% |  |
| Cc1ccccc1CNC(=O)Nc1ccc(Cl)cc1 |  | inconclusive: 57.8% |  |
| O=C(NCCOc1ccccc1)C(=O)c1c[nH]c2ccccc12 |  | inconclusive: 33.8% |  |
| COc1ccc([C@H]2CC(=O)C=C(c3ccc(OC(F)(F)F)cc3)C2)cc1 |  |  | inconclusive: 29.1 µM [falling, single point] |
| Cc1ccc2nc(SCC(=O)NC3CCCc4ccccc43)[nH]c2c1 (configuration not stated) |  | inconclusive: -11.4% |  |
| O=C(NCc1cccnc1)c1ccc(Br)o1 |  | inconclusive: -36.2% [at 0.0737 µM] |  |
| COc1cccc(-c2nc(N3CCN(C)CC3)c3ccccc3n2)c1O |  | inconclusive: -7.91% |  |
| O=C(NC1CCCc2ccccc21)c1ccccc1Br (configuration not stated) |  | inconclusive: 29.4% |  |
| CCOC(=O)CN1CC23C=CC(O2)C(C(=O)NC2CCCCC2)C3C1=O (configuration not stated) |  | inconclusive: -39.1% |  |
| Cc1cccc(CNC(=O)c2cc(S(=O)(=O)N3CCOCC3)cn2C)c1 | inactive [at 46.1 µM] |  |  |
| Cn1nnnc1SCC(=O)N1c2ccccc2CCc2ccccc21 |  | inconclusive: 7.95% |  |
| Cc1ccccc1Cn1ccc(NC(=O)c2nn3cccnc3c2Cl)n1 |  | inconclusive: 5.88% |  |
| CCCn1c(SCC(=O)Nc2nnc(C(C)C)s2)nc2c1c(=O)n(C)c(=O)n2C |  |  | inconclusive: 0.82 µM [falling, full curve] |
| CCc1nc(SCC(=O)O)c(C#N)c2c1CCCC2 |  | inconclusive: 24.9% |  |
| CCc1c(C)c(C#N)c2nc3ccccc3n2c1-n1nc(C)cc1C |  |  | inconclusive: 0.0058 µM [falling, full curve] |
| CC1CN(C(=O)N2c3ccccc3Sc3ccccc32)CC(C)O1 (configuration not stated) |  | inconclusive: -14.8% |  |
| CC1CCCN(C(=O)c2ccc(-c3ccccc3Cl)o2)C1 (configuration not stated) |  | inconclusive: 14.5% |  |
| COC(=O)[C@H](Cc1ccccc1)NC(=O)Nc1ccc(OC)cc1 |  |  | inconclusive: 6.51 µM [activator, single point] |
| COc1ccccc1CCCNC(=O)C1CCC(=O)N(CCN2CCOCC2)C1 (configuration not stated) |  |  | inconclusive: 9.2 µM [activator, partial curve] |
| CCCCN(CC)C(=O)c1ccc(-c2ccccc2)cc1 |  |  | inconclusive: 4.61 µM [activator, partial curve] |

| SMILES | outcome | lipid storage change, negative = inhibition | Potency |
| --- | --- | --- | --- |
| Cc1nn2c(-c3ccncc3)ccnc2c1Cl |  | inconclusive: 10.1% |  |
| N#Cc1cc2cc3c(cc2nc1SCC(=O)OC1CCCCC1)OCO3 |  |  | inconclusive: 18.4 µM [activator, single point] |
| CC(C)CNC(=O)NC(=O)COC(=O)C1CSC2(c3ccc(F)cc3)CCC(=O)N12 (configuration not stated) |  | inactive: -8.94% |  |
| O=C(O)CCSc1nnc(SCC(=O)NCC(F)(F)F)s1 |  | inconclusive: 8.15% |  |
| COc1ccc(NC(=O)C=C(C)C)cc1Cl |  |  | inconclusive: 6.51 µM [activator, single point] |
| O=C(Nc1ccc(-n2cccc2)cc1)C1CC1 |  | inconclusive: 12.7% |  |
| Cc1onc(-c2ccccc2)c1C(N)=O | inactive [at 46.1 µM] |  |  |
| C/C(=N\Nc1nc2ccccc2[nH]1)c1ccccn1 |  | inconclusive: 71.1% |  |
| CN(c1cccc(NC(=O)CN(c2cccc(Cl)c2)S(=O)(=O)c2ccccc2)c1)S(C)(=O)=O |  | inconclusive: -27.9% |  |
| COC(=O)CNC(=O)C1CCN(c2nc(C)cc(C)n2)CC1 |  | inconclusive: 13.1% |  |
| COc1ccc(N2CCN(S(=O)(=O)CCNC(=O)CCCc3ccccc3)CC2)cc1 |  | inconclusive: 41% [at 0.0737 µM] |  |
| O=C(NCc1ccco1)Oc1ccccc1 |  | inconclusive: -12.3% |  |
| Cc1cc(-n2c(C)cc(C(=S)N3CCOCC3)c2C)ccc1Br |  | inconclusive: 19.7% |  |
| CC(=O)Nc1cc(ON=C(C)C)cc([N+](=O)[O-])c1 |  | inconclusive: 19.3% |  |
| O=C(Cc1c(O)c2ccccc2[nH]c1=O)NC1CCCCCCC1 |  |  | inconclusive: 0.651 µM [falling, single point] |
| Nc1ccccc1-c1nc2ccccc2[nH]1 |  |  | inconclusive: 0.291 µM [activator, partial curve, poor fit] |
| COCCCNC(=O)Cc1ccccc1OC |  |  | inconclusive: 0.206 µM [falling, full curve, poor fit] |
| O=C(NCCN1CCOCC1)c1cn(CCc2ccccc2)nn1 |  | inconclusive: -30% |  |
| O=C(COC(=O)[C@H](Cc1ccccc1)NC(=O)c1cccs1)NC1CCCCC1 |  | inconclusive: 17.8% |  |
| NCCCC[C@@H]1NC(=O)c2cc([N+](=O)[O-])cc(I)c2SC[C@@H](C(N)=O)NC(=O)[C@H](Cc2ccc(O)cc2)NC1=O |  | inconclusive: -7.47% |  |
| CC(NC(=O)CN1CCN(CC(=O)Nc2ccccc2Cl)CC1)c1ccc(Br)cc1 (configuration not stated) |  | inconclusive: 5.12% |  |
| Cc1ccccc1-c1noc(CNC(=O)COc2ccccc2)n1 |  |  | inconclusive: 0.731 µM [activator, full curve, poor fit] |
| Cc1ccc(-c2nc3c(c(=O)[nH]c(=O)n3Cc3ccccc3)n2C)o1 |  | inconclusive: -68.3% |  |
| COc1cccc(CNC(=O)C(=O)NCCC2CCCCN2S(=O)(=O)c2cccs2)c1 (configuration not stated) |  | inconclusive: 26.1% |  |
| Cc1ccccc1-n1c(SCc2cc(=O)n3ccccc3n2)nc2[nH]ncc2c1=O |  | inconclusive: 2.13% |  |
| Cc1ccc(OCC(O)Cn2c(=N)n(Cc3ccccc3)c3ccccc32)cc1 (configuration not stated) |  |  | inconclusive: 29.1 µM [cytotoxic, single point] |

In the list so far, these contain a CF3 group.

| SMILES | outcome | lipid storage change, negative = inhibition | Potency |
| --- | --- | --- | --- |
| COc1ccc([C@H]2CC(=O)C=C(c3ccc(OC(F)(F)F)cc3)C2)cc1 |  |  | inconclusive: 29.1 µM [falling, single point] |
| O=C(O)CCSc1nnc(SCC(=O)NCC(F)(F)F)s1 |  | inconclusive: 8.15% |  |

Additional entries.

| SMILES | outcome | lipid storage change, negative = inhibition | Potency |
| --- | --- | --- | --- |
| CCOc1ccc(-n2nnnc2SCC(=O)c2ccccc2)cc1 |  | inconclusive: 12.1% |  |
| COc1ccc2[nH]c(CN3CCN(CC=C(C)C)C(CCO)C3)c(C)c2c1 (configuration not stated) |  | inconclusive: -37.6% |  |
| Cc1cc(C)c[n+](-c2[nH]c(=O)sc2/C=N/N=C(\N)[S-])c1 |  |  | inconclusive: 0.0046 µM [falling, full curve, poor fit] |
| CC(C)(C)NC(=O)CSc1nc(Cc2ccccc2)nc2ccccc12 |  | inconclusive: -22.3% |  |
| COc1ccc(-c2c(-c3cc(OC)cc(OC)c3)n(C)c3ccc(-c4cc(F)cc(OC)c4)cc23)cc1 |  | inconclusive: -6.64% |  |
| CC(C)(C)NS(=O)(=O)c1cccc(S(=O)(=O)c2cccc(S(=O)(=O)NC(C)(C)C)c2)c1 |  | inconclusive: 25.7% |  |
| Cc1nc2ccc(N)cc2s1 |  | inconclusive: 16.7% |  |
| O=c1cc(-c2ccccc2)nc(SCc2ccc(F)cc2)[nH]1 |  | inconclusive: -33.8% |  |
| CCc1nnc(NS(=O)(=O)c2ccc(NC(=O)CCC(=O)O)cc2)s1 |  |  | inconclusive: 20.6 µM [activator, partial curve] |
| CCOc1cc(N2CCOCC2)c(OCC)cc1NC(=O)COC(=O)COc1ccc(C#N)cc1 |  | inconclusive: 16.2% |  |
| COc1ccc([C@H]2CC(=O)C=C(c3cccc(F)c3OC)C2)cc1 |  | inconclusive: 10.5% |  |
| COc1ccc(-c2cn(-c3ccc(SC(F)F)cc3)c3[n+]2CCC3)cc1OC |  | inconclusive: 0.039% |  |
| CN(C)/C=C(\C#N)C(=O)N/N=C(\CC(=O)C(F)(F)F)c1ccco1 |  | inconclusive: 13.8% |  |
| C=CCn1c(O)c2ccc(C(=O)N=NC(=O)COc3ccc(OC)cc3)cc2c1O |  |  | inconclusive: 29.1 µM [activator, single point] |
| C=CCn1c(=O)c(C(=O)NCc2ccccc2Cl)c(O)c2ccccc21 |  |  | inconclusive: 4.11 µM [falling, single point] |
| CC(NC(=O)C1=CC=CN2CCS(=O)(=O)N=C12)c1ccc(Cl)cc1Cl (configuration not stated) |  |  | inconclusive: 0.058 µM [falling, full curve, poor fit] |
| COC(=O)c1ccc(C2/C(=C(/O)c3ccc(OC)cc3)C(=O)C(=O)N2CC2CCCO2)cc1 (configuration not stated) |  | inconclusive: -47.6% |  |
| COc1ccc(C2CC(=O)Nc3sc(=N)c4c(N)c(C#N)c(N)nc4c32)cc1OC (configuration not stated) |  | inconclusive: 5.85% |  |
| Cc1nc(N2CCN(C(=O)COc3ccccc3)CC2)c2c(C)c(C)sc2n1 |  |  | inconclusive: 20.6 µM [activator, single point] |
| COc1cccc(C(C(=O)NC2CCCCC2)N(CCN2CCOCC2)C(=O)C2COc3ccccc3O2)c1 (configuration not stated) |  | inconclusive: -2.9% |  |
| O=C(NCC(=O)N1CCN(S(=O)(=O)c2ccccc2F)CC1)c1ccc2c(c1)OCO2 |  | inconclusive: 65.5% |  |
| O=C(CCc1ccc(S(=O)(=O)N2CCOCC2)cc1)N1CCCC1 |  |  | inconclusive: 1.16 µM [falling, single point] |
| CCn1c(C)nnc1SCC(=O)Nc1ccccc1Cl |  |  | inconclusive: 5.8 µM [activator, partial curve, poor fit] |
| COc1ccc(N2CCN(C(=O)CCc3nc(-c4ccc(C)cc4)no3)CC2)cc1 |  | inconclusive: -2.13% |  |
| O=C(CNC(=O)c1ccco1)Nc1ccc(N2CCCCCC2)cc1 |  |  | inconclusive: 20.6 µM [activator, single point] |
